The list shows a part of the results.
Target: T1, OsSMF1 (Oryza sativa, UniProt Q6ZLB0 1-436)
T1 sequence: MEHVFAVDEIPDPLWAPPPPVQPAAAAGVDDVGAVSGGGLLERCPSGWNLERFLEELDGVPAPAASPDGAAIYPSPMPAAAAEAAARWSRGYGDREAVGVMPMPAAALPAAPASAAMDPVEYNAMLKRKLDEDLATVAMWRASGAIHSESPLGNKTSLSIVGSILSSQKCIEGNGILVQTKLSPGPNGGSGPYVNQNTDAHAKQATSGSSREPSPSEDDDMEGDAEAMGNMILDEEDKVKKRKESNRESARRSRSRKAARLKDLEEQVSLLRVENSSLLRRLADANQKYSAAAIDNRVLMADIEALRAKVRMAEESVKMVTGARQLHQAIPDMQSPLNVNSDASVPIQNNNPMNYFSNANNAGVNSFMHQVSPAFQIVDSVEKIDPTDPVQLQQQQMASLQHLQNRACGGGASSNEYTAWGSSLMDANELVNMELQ
Assay: protein-binding microarray (RPBM); PBS, 2% BSA, 51.3 ng/ul salmon testes DNA, 50 uM zinc acetate, 200 nM TF, 25 C, 1 h; high values mean tight binding
Conditions: protein: recombinant; tags: N-terminal polyhistidine and DsRed monomer fusion (pET32a); chain copies: 2; label: CyDye5-dUTP incorporated in the synthesized complementary strand; 3' TTTTT single-stranded linker to array surface; dsDNA, one strand shown
How it was run: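 Using Ni–NTA, transcription factors fused N-terminally to polyhistidine and DsRed were purified after expression in E. coli BL21-CodonPlus. These were incubated at 200 nM with a blocked, double-stranded custom Agilent array for 1 h at 25 °C in a buffer containing 50 µM zinc acetate, and the array was washed. The binding signal is per-feature fluorescence intensity (arbitrary units) on an Axon 4000B scanner.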

| Sequence | binding signal |
| --- | --- |
| GTGCAACCCAGGCCATCCCACGCAATCGGACACAGCACCGCGGAGTCACCTAGTGCAG | 5780 fluorescence intensity (a.u.) |
| CTCAACGTCCACGATGACACGCCATGGTTCATCGTCGGCACGGAGTCACCTAGTGCAG | 5550 fluorescence intensity (a.u.) |
| GCATGGCGCCGCCATCTCGGATTCGCCGTAGTGTCTCCGCCGGAGTCACCTAGTGCAG | 35300 fluorescence intensity (a.u.) |
| GCAATTACATTCATGACATGGATCTGGCCTAGTTTTGCTGCGGAGTCACCTAGTGCAG | 5040 fluorescence intensity (a.u.) |
| CCACGCCCGACGCTGTAGCTGACAGGTGGGTCCACACCATCGGAGTCACCTAGTGCAG | 3780 fluorescence intensity (a.u.) |
| GGCCTTACAATATAAGAATATTCTTGTAGCATTAGGGTAGCGGAGTCACCTAGTGCAG | 3740 fluorescence intensity (a.u.) |
| TTCAAATGGAGAACTGACGAACTTGTAATATGACGTCAGTCGGAGTCACCTAGTGCAG | 6230 fluorescence intensity (a.u.) |
| CAATGCTTTTCACAATAACTTGTGTCATTTTCTGAAGTTTCGGAGTCACCTAGTGCAG | 3500 fluorescence intensity (a.u.) |
| CAGACCACAGCCATCAACCGCGTCGAACGGATGGATGGTCCGGAGTCACCTAGTGCAG | 3220 fluorescence intensity (a.u.) |
| GGAAACCCACCTCCGTCGACTTCTTCTTCAACTCCGGTTGCGGAGTCACCTAGTGCAG | 3370 fluorescence intensity (a.u.) |
| CCCAGTAGTGTTCCGGTTAGCTCTATATGATGGTGGGCTACGGAGTCACCTAGTGCAG | 3980 fluorescence intensity (a.u.) |
| CGGAATCGGCGTCCGAAATTGGACGTGGCCTGCCTGCAGTCGGAGTCACCTAGTGCAG | 4200 fluorescence intensity (a.u.) |
| CACGCTGCAGCAGCGTGGCCCACACGCCATGCTGGCACGCCGGAGTCACCTAGTGCAG | 4360 fluorescence intensity (a.u.) |
| ACTACAACAGTTTAATTAATATCCTGGTCATCCAAAAGCCCGGAGTCACCTAGTGCAG | 3290 fluorescence intensity (a.u.) |
| GCAAGATTGGACGGTCCAGATCTCTAAAGTACGTCAGCACCGGAGTCACCTAGTGCAG | 6320 fluorescence intensity (a.u.) |
| ATACTGACGTTGCGTCACTTCCTTAACTCGGGGTAGTACTCGGAGTCACCTAGTGCAG | 6460 fluorescence intensity (a.u.) |
| ATGTGAACGCCATGTAAGCAGGTCACGCGTGACAGCACGACGGAGTCACCTAGTGCAG | 4580 fluorescence intensity (a.u.) |
| GCGCGTGGCGTGACAGAGTTATTTGGCCAGGTTTACATCTCGGAGTCACCTAGTGCAG | 3210 fluorescence intensity (a.u.) |
| TTTGTTCTGGACGATTCGGGTCGTGCTGGTAACCTGAACTCGGAGTCACCTAGTGCAG | 3220 fluorescence intensity (a.u.) |
| CGGCACATACATGCACCGGCGCGCGCACGTCACGACAACGCGGAGTCACCTAGTGCAG | 7470 fluorescence intensity (a.u.) |
| GGCCCATACGTCAGTGGCTGTATGACGCCACGTCAGCTGGCGGAGTCACCTAGTGCAG | 36400 fluorescence intensity (a.u.) |
| AGGAATAAGCTCATTTGAAGTACCTGGATGTGGATTTTCTCGGAGTCACCTAGTGCAG | 20000 fluorescence intensity (a.u.) |
| CCTCGATCCGCCAGCTCGATCCACATGCATTGCCTCCCCTCGGAGTCACCTAGTGCAG | 3400 fluorescence intensity (a.u.) |
| GTCCCACCCAACTAACGAGCGATGAATCAGCGAGCGACGACGGAGTCACCTAGTGCAG | 4530 fluorescence intensity (a.u.) |
| ATTAAAATTTTGGTAGATAAACATAAGAATAAGCGAAAAGCGGAGTCACCTAGTGCAG | 38800 fluorescence intensity (a.u.) |
| GACGAGGTTGGGCTGCGCATTGAGCAGCCCATGGGCCCCGCGGAGTCACCTAGTGCAG | 27100 fluorescence intensity (a.u.) |
| CATATTTTGATGCTGAAGTCATCATAATTAGCTCGTTCGTCGGAGTCACCTAGTGCAG | 4410 fluorescence intensity (a.u.) |

| Sequence | binding signal |
| --- | --- |
| GGCCCGGTCGCCGGCAGATCGCACGTCACGACGAGGATCACGGAGTCACCTAGTGCAG | 4020 fluorescence intensity (a.u.) |
| ACAGAAGTGGGCGGCCCACCGCCCAATCAGGGAGTCCTTGCGGAGTCACCTAGTGCAG | 3510 fluorescence intensity (a.u.) |
| TGATCAAGGTACCATTCGTCTCTGACAACTCCACCGTGTGCGGAGTCACCTAGTGCAG | 3420 fluorescence intensity (a.u.) |
| GAGAGGAGGCTGACGTGGATATACTGACATGTGGGGTTCGCGGAGTCACCTAGTGCAG | 14300 fluorescence intensity (a.u.) |
| ACTACCACTGCATAGTGTCATGCATCATTGACTCATCATCCGGAGTCACCTAGTGCAG | 4750 fluorescence intensity (a.u.) |
| GGCTCAAAAGATTCATCTCGCGATTTCCATACAAACTGTACGGAGTCACCTAGTGCAG | 46300 fluorescence intensity (a.u.) |
| TTGCATTGAACTCATCATCATCCTTCAAATAATTCATCCACGGAGTCACCTAGTGCAG | 3340 fluorescence intensity (a.u.) |
| CGGAGGTCGCCGCGCCCGTGCCCACGCCAGAGCCATCACACGGAGTCACCTAGTGCAG | 38900 fluorescence intensity (a.u.) |
| CTTCCCTCGCCCCGGTCGATCGATCGAAGCCGACGAAGCACGGAGTCACCTAGTGCAG | 3260 fluorescence intensity (a.u.) |
| ACATGCGTACACGCGCCACATACGTTACGTACGACGCCTACGGAGTCACCTAGTGCAG | 4930 fluorescence intensity (a.u.) |
| GCAGCAGTGATGCACGCCCGCAAGAGACGAATCGTTTGCACGGAGTCACCTAGTGCAG | 3770 fluorescence intensity (a.u.) |
| CTAAACAAAGGATGAGGCTATGAGCACCCACCAACCATACCGGAGTCACCTAGTGCAG | 34200 fluorescence intensity (a.u.) |
| TGCCCACCCCTGCACCTGTCAGCGGCTCTACTTTTCGCCTCGGAGTCACCTAGTGCAG | 3540 fluorescence intensity (a.u.) |
| GGCATAATAGGCCAGCCGTGTAGGCAGAGACACCAGTCGGCGGAGTCACCTAGTGCAG | 4530 fluorescence intensity (a.u.) |
| TGTATGGTGTAGAAAAGTGCTGGTGTTGTTTACTTCATTGCGGAGTCACCTAGTGCAG | 31300 fluorescence intensity (a.u.) |
| GAAGAGTGGCAACCGCAGAGCCCACACGTAATCCTTTGCCCGGAGTCACCTAGTGCAG | 4960 fluorescence intensity (a.u.) |
| ACGACGACACGCACGCGCGGGGATGCAGCTTCGACTTCTCCGGAGTCACCTAGTGCAG | 3150 fluorescence intensity (a.u.) |
| TGGGCGCAGGCCGCAAGTCGACTGACCCCGCCGGGCCCAACGGAGTCACCTAGTGCAG | 4096 fluorescence intensity (a.u.) |
| ACGTTGATTAGTTAGTACTAACCTACTCCTACGTGTTAACCGGAGTCACCTAGTGCAG | 4580 fluorescence intensity (a.u.) |
| TAAACCCCACCCGCGGGACTACGTCATCATCCTGCCACTCCGGAGTCACCTAGTGCAG | 8440 fluorescence intensity (a.u.) |
| TAGATCGATAGCCTATCCACGCGGCATCTATCCAGGTCGGCGGAGTCACCTAGTGCAG | 5160 fluorescence intensity (a.u.) |
| CCCCAGGCGCTCACCCGCCACATCCGCTCCGCCTGCCTGCCGGAGTCACCTAGTGCAG | 4690 fluorescence intensity (a.u.) |
| GACTGCTTCGTCGTAACCCTTAGCGAGTAACGTGGCATATCGGAGTCACCTAGTGCAG | 4140 fluorescence intensity (a.u.) |
| CCTCTTGGGTTCACCTCATCAGGCCAAATGCCCATGCAAACGGAGTCACCTAGTGCAG | 22700 fluorescence intensity (a.u.) |
| AGGGACGACCAATGTCAACGCGCTGCGCTAATCACGCGCGCGGAGTCACCTAGTGCAG | 3980 fluorescence intensity (a.u.) |
| GCTGGCGTACGTGGCGGGGCTGCTCGTGTTCGTGCTTGCGCGGAGTCACCTAGTGCAG | 10200 fluorescence intensity (a.u.) |
| ATCACGCGATTAGAGCGAGCGCCACGCCGCGCCGTCGCCGCGGAGTCACCTAGTGCAG | 3770 fluorescence intensity (a.u.) |

Copied from the list.
GCAAGATTGGACGGTCCAGATCTCTAAAGTACGTCAGCACCGGAGTCACCTAGTGCAG | binding signal: 6320 fluorescence intensity (a.u.)
GCAGCAGTGATGCACGCCCGCAAGAGACGAATCGTTTGCACGGAGTCACCTAGTGCAG | binding signal: 3770 fluorescence intensity (a.u.)

From publication PMC7819943, “Rice protein-binding microarrays: a tool to detect cis-acting elements near promoter regions in rice”
